This note sets out measurements from patent publication US20050209278A1, “Piperidinyl- and piperazinyl-sulfonylmethyl hydroxamic acids and their use as protease inhibitors” (priority 2002, published 2005).

Amino acid sequences for entries named in this document (tags omitted). Residues count along the entry.
UniProt P14780, 107-707 limits assumed: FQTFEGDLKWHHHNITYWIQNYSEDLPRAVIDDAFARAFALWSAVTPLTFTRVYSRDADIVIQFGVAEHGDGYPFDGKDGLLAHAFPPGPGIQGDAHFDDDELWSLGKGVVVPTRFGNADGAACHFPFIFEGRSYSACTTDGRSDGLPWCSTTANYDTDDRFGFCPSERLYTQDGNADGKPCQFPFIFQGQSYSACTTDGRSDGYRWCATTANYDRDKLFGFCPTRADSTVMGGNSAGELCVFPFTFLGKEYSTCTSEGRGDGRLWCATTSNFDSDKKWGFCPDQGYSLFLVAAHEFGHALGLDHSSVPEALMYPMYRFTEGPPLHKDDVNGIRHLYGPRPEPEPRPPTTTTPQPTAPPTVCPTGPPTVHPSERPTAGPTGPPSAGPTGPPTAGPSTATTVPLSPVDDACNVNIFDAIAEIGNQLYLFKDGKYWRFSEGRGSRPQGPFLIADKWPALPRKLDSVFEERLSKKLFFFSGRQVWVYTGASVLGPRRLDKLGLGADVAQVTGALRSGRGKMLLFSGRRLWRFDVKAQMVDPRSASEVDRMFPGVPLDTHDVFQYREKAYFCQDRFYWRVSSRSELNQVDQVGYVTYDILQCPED
UniProt P03956, 100-469 limits assumed: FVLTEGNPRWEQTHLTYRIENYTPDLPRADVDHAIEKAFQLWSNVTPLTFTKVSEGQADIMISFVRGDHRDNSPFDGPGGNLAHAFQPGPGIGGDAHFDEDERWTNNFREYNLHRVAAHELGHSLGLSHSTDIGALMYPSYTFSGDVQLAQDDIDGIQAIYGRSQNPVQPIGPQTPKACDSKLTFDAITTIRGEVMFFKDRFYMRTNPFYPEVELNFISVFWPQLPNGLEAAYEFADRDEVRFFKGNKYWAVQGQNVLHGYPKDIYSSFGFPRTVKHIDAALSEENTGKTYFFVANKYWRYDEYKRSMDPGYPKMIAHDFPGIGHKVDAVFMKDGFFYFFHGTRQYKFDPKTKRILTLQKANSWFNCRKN
UniProt P08253, 110-660 limits assumed: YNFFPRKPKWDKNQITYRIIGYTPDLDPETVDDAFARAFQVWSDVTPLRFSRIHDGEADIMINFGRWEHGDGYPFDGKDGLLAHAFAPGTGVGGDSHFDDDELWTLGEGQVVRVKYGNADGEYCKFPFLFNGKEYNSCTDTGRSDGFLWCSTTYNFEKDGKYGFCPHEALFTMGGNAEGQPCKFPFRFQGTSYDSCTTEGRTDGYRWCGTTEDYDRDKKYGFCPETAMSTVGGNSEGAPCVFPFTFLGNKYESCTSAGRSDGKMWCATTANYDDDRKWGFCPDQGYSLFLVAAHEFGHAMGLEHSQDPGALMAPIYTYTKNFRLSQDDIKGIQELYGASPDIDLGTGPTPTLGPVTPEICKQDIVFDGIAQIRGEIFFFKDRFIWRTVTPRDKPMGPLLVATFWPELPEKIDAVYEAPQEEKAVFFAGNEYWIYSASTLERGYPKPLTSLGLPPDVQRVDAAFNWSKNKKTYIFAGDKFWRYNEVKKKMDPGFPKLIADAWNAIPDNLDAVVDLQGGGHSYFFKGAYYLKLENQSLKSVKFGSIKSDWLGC

Type in all cases: biochemical
The target of test [1] is MMP-13 (Homo sapiens, UniProt P45452). Kind of test: MMP-13 inhibition (in vitro Ki). The note with it: read-out: MMP-13 Ki; Table 8; tested form: HCl.
Test [2] deals with MMP-9 (Homo sapiens, UniProt P14780). Kind of test: MMP-9 inhibition (in vitro Ki). The note with it: read-out: MMP-9 Ki; Table 8; tested form: HCl.
Test [3] has as its target MMP-14 (Homo sapiens, UniProt P50281). In words: MMP-14 inhibition (in vitro Ki). The note with it: read-out: MMP-14 Ki; Table 8; tested form: HCl.
Test [4] deals with MMP-1 (Homo sapiens, UniProt P03956). Kind of test: MMP-1 inhibition (in vitro Ki). The note with it: read-out: MMP-1 Ki; Table 8; tested form: HCl.
The target in test [5] is MMP-2 (Homo sapiens, UniProt P08253). In words: MMP-2 inhibition (in vitro Ki). The note with it: read-out: MMP-2 Ki; Table 8; tested form: HCl.

SMILES strings stand for the structures. The structures given here were assigned with low confidence; some may be wrong.

For `O=C(NO)C1(S(=O)(=O)N2CCC(c3ccc(CCC(F)(F)C(F)(F)F)cn3)CC2)CCCC1`, the Ki in test [1] amounted to 0.06 nM; in test [2] it was 0.13 nM; in test [3], 700 nM; in test [4], 1610 nM; in test [5], 0.27 nM.
